Experimental data: paper PMC4821239, “Molecular architecture of the Dam1 complex–microtubule interaction” (Open Biology, 2016)

Target: β-tubulin (porcine)
Assay: cross-linking; EDC with Sulfo-NHS, Dam1 complex assembled on taxol-stabilized microtubules in BRB80, pellet washed, room temperature 1 h, digested in solution, mass spectrometry; both purified

binding	Binder
binds	Dam1 (protein, UniProt P53267 1-343) MSEDKAKLGTTRSATEYRLSIGSAPTSRRSSMGESSSLMKFADQEGLTSSVGEYNENTIQQLLLPKIRELSDSIITLDSNFTRLNFIHESLADLNESLGSLLYGIMSNSWCVEFSQAPHDIQDDLIAIKQLKSLEDEKNNLVMELSNMERGIKRKKDEQGENDLAKASQNKQFNQPLFPSSQVRKYRSYDNRDKRKPSKIGNNLQVENEEDYEDDTSSEASFVLNPTNIGMSKSSQGHVTKTTRLNNNTNSKLRRKSILHTIRNSIASGADLPIENDNVVNLGDLHPNNRISLGSGAARVVNGPVTKNRNSMFSGRAERKPTESRHSVAKKTEKKINTRPPFR
binds	Duo1 (natural protein, budding yeast, UniProt P53168 1-247, looked up, Duo1, subunit of the budding yeast Dam1 complex; Subunit inside the recombinant 10-subunit complex; also called Duo1 subunit; source: expressed and purified as part of the Dam1 complex as described [3]) MSEQSQLDDSTIDKLIPQIFNEMRSNLNNTTNKFPKSTGGGASDNISANSNSIRSFNSITTQSLLKESESLDKITAMIKNVTAALKNNLPVYVNQVHEVCKSTNSILDSWINIHSQAGYIHKLMSDQTYLKLINDRLHNENVNTNDEDGSTLHNVIALKKKEILDLRQKLENRKGEKDAAPAKPPNQGLNPRYGVQSGRRPVPSAGISNNGRVRKTHVPASKRPSGIPRVTNRWTKPTASSSRKMFR

No constants are given. Whether binding was seen depends on the method and setting. Binding can be weak; no strength is given.
